{
  "source": "PubChem BioAssay AID504467",
  "about": "(National Center for Advancing Translational Sciences (NCATS), 2011)",
  "note": "Hit rate of the full screen: of about 330,000 compounds, about 7,700 (2.3%) were called active. The inconclusive results got no clear call from the source; some entries with a clear call stand among them for comparison. Calls follow the shape of the dose curve; as a rule, active = well fitted inhibition curve with a large enough effect; inconclusive = small, poorly fitted or top-dose-only effect, or effect the other way; inactive = flat fitted curve, though single readings scatter. Potencies beside an inconclusive call are fits to weak or partial responses and may not hold up. % is scaled to controls: 0 for no effect and ±100 for the full control effect; potency is read from the fitted curve at half-maximal effect.",
  "data": [
    {"assay": "qHTS screen for small molecules that inhibit ELG1-dependent DNA repair in human embryonic kidney (HEK293T) cells expressing luciferase-tagged ELG1; also: nearly all actives have a fitted effect of over 55% in size", "settings": "HEK293T ELG1-luciferase reporter, luminescence, 16 h, DNA damage induced by 5-fluorouridine; activity change, negative = inhibition: at 46.1 µM (top of the series)", "outline": "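In this reporter screen, reduction of luminescence relative to DMSO vehicle indicated activity. Compounds and 5-fluorouridine were added together to 2,000 cells per well, incubated for 16 hr at 37 °C, then developed with ONE-Glo.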", "values": [
      {"smiles": "CC(=O)N1CCc2cc(S(=O)(=O)CCC(=O)N(C)Cc3ccco3)ccc21", "activity change, negative = inhibition": "inactive: -0.878%"},
      {"smiles": "CCCCn1c(SCC(=O)N2CCC(C(=O)OCC)CC2)nc2cc(S(N)(=O)=O)ccc21", "Potency": "inconclusive: 29.1 µM [inhibitor, single point]"},
      {"smiles": "Cc1ccccc1NC(=O)CNC(=O)c1ccc(C(F)(F)F)cc1", "Potency": "inconclusive: 16.4 µM [activator, single point]"},
      {"smiles": "CCOC(=O)/C(=N/O)C1=NC(C)(C)Cc2cc(C)c(C)cc21", "Potency": "inconclusive: 6.51 µM [activator, partial curve, poor fit]"},
      {"smiles": "Cc1ccc2[nH]nc(C(=O)N3CCCC(C(=O)c4ccc(Cl)cc4)C3)c2c1", "note": "(configuration not stated)", "Potency": "inconclusive: 18.3 µM [inhibitor, partial curve, poor fit]"},
      {"smiles": "O=C(Nc1nc(=O)c2ccccc2s1)c1ccc(F)cc1", "Potency": "inconclusive: 9.2 µM [activator, partial curve]"},
      {"smiles": "Cc1cccc(NC(=O)CN(CC2CCCO2)C(=O)c2oc3ccc(F)cc3c2C)c1C", "note": "(configuration not stated)", "Potency": "inconclusive: 20.6 µM [inhibitor, single point]"},
      {"smiles": "CCCS(=O)(=O)N1CCn2c(nc3ccccc32)C1", "Potency": "inconclusive: 23.1 µM [activator, partial curve, poor fit]"},
      {"smiles": "COc1ccc(O)c(/C=c2/sc3nc4cc(C)c(C)cc4n3c2=O)c1", "Potency": "inconclusive: 29.1 µM [inhibitor, single point]"},
      {"smiles": "O=C1c2sc3nc4ccccc4n3c2C(=O)N1c1ccccc1Cl", "Potency": "inconclusive: 11.6 µM [activator, partial curve]"},
      {"smiles": "COc1cc(C(=O)Nc2ccc3c(c2)ncn3C(C)(C)C)cc(OC)c1OC", "Potency": "inconclusive: 16.4 µM [activator, single point]"},
      {"smiles": "CCN(CC)S(=O)(=O)c1ccc(N2CCCC2)c(NC(=O)c2ccc(OC)cc2OC)c1", "Potency": "inconclusive: 20.6 µM [inhibitor, single point]"},
      {"smiles": "COc1ccc(NC(=O)CCOc2ccccc2)c(OC)c1", "Potency": "inconclusive: 25.9 µM [activator, partial curve, poor fit]"},
      {"smiles": "Cn1c2ccccc2n2c(=O)c(=O)n(CC(=O)N3CCCc4ccccc43)nc12", "Potency": "inconclusive: 11.6 µM [activator, partial curve, poor fit]"},
      {"smiles": "CCc1nnc(NC(=O)c2cc(S(=O)(=O)N3CCOCC3)ccc2N2CCCCC2)s1", "activity change, negative = inhibition": "inactive: -6.42%"},
      {"smiles": "CCN(CC)S(=O)(=O)c1ccc(N(C)CCc2ccc(OC)c(OC)c2)nc1", "Potency": "inconclusive: 20.6 µM [inhibitor, single point]"},
      {"smiles": "COc1ccc(C2C(C(=O)NCCCN3CCOCC3)c3ccccc3C(=O)N2c2ccc(OC)cc2)cc1", "note": "(configuration not stated)", "Potency": "inconclusive: 20.6 µM [activator, single point]"},
      {"smiles": "Cc1ccc2nc(SCC(=O)Nc3cccc(S(=O)(=O)NC4=NCCCCC4)c3)[nH]c2c1", "Potency": "inconclusive: 18.3 µM [inhibitor, single point]"},
      {"smiles": "CCN=C1NN=C(c2cc(C)n(Cc3ccco3)c2C)CS1", "Potency": "inconclusive: 0.146 µM [activator, full curve]"},
      {"smiles": "O=C(C1CCC1)N1CCc2cc(S(=O)(=O)N3CCCCC3)ccc21", "Potency": "inconclusive: 29.1 µM [inhibitor, single point]"},
      {"smiles": "CN1N=C2c3ccccc3CCCC2C1c1ccc(F)cc1", "note": "(configuration not stated)", "Potency": "inconclusive: 9.2 µM [activator, partial curve]"},
      {"smiles": "COc1cccc(-c2nc(CC(=O)O)cs2)c1OC", "Potency": "inconclusive: 20.6 µM [activator, partial curve, poor fit]"},
      {"smiles": "C=CCc1cccc(C=Nc2cccn3cc(-c4ccccc4)nc23)c1O", "Potency": "inconclusive: 18.3 µM [activator, partial curve]"},
      {"smiles": "O=c1cc(N2CCc3ccccc32)[nH]c(=O)n1-c1ccc(Br)cc1", "activity change, negative = inhibition": "inactive: 15.4%"},
      {"smiles": "CC(C)(C)OC(=O)CC12CCCCC1NC(=O)O2", "note": "(configuration not stated)", "Potency": "inconclusive: 0.103 µM [inhibitor, full curve, poor fit]"},
      {"smiles": "Cc1ccc(CN2C(=O)c3ccccc3NC23CCN(Cc2ccccc2)CC3)cc1", "Potency": "inconclusive: 16.4 µM [inhibitor, partial curve]"},
      {"smiles": "Cn1c(N2CCN(c3ccccn3)CC2)nc2c1c(=O)n(Cc1ccc(Cl)cc1)c(=O)n2C", "Potency": "active: 16.4 µM"},
      {"smiles": "CCN(CC)CCCN1CC(O)=C(c2nc3ccccc3s2)C1=N", "activity change, negative = inhibition": "inactive: 16.9%"},
      {"smiles": "Cc1ccc(/C=C2\\SC(=S)N(CCCC(=O)NC3CCCC3)C2=O)cc1", "Potency": "inconclusive: 2.06 µM [inhibitor, partial curve]"},
      {"smiles": "CCC(C)C(=O)N1CCc2cc(-c3csc(N)n3)ccc21", "note": "(configuration not stated)", "Potency": "inconclusive: 5.17 µM [activator, partial curve]"},
      {"smiles": "O=S(=O)(c1ccccc1)N1CCC(n2cnc3ccccc32)CC1", "Potency": "inconclusive: 11.6 µM [inhibitor, partial curve, poor fit]"},
      {"smiles": "COc1cc(/C=C/c2ccc3c(Br)cc(Br)c(O)c3n2)ccc1O", "Potency": "inconclusive: 4.61 µM [inhibitor, single point]"},
      {"smiles": "O=C(CSc1nnc(-c2cccnc2)o1)Nc1cccc(Cl)c1", "Potency": "inconclusive: 20.6 µM [activator, partial curve]"},
      {"smiles": "CN(Cc1ccccc1)C(=O)c1ccc(NC(=O)Cc2cccc(NC(=O)C3CCCN(C(=O)CCc4ccccc4)C3)c2)cc1", "note": "(configuration not stated)", "Potency": "inconclusive: 0.461 µM [inhibitor, partial curve, poor fit]"},
      {"smiles": "CCNC(=S)Nc1ccc(OCc2nc3ccccc3s2)cc1", "Potency": "inconclusive: 3.16 µM [activator, partial curve, poor fit]"},
      {"smiles": "COc1ccc(/C=N/Nc2nc(-c3ccc(C)cc3)c(NC(C)=O)s2)cc1", "activity change, negative = inhibition": "inactive: 24.8%"},
      {"smiles": "COc1ccc(NS(=O)(=O)c2cccc(C(=O)N3CCN(c4ccccc4O)CC3)c2)cc1", "Potency": "inconclusive: 6.51 µM [inhibitor, single point]"},
      {"smiles": "CCN(CC)S(=O)(=O)c1ccc(C(=O)Nc2ccc(Cc3ccncc3)cc2)cc1", "Potency": "inconclusive: 5.8 µM [inhibitor, full curve]"},
      {"smiles": "O=C(CCCN1C(=O)c2cccc3cccc(c23)C1=O)N1CCN(c2ccc(F)cc2)CC1", "Potency": "inconclusive: 29.1 µM [inhibitor, single point]"},
      {"smiles": "O=C(c1ccccc1)N1CCN2C(=O)c3ccccc3C12c1ccc(Cl)cc1", "note": "(configuration not stated)", "Potency": "inconclusive: 6.51 µM [activator, full curve, poor fit]"},
      {"smiles": "COc1ccc2nc(SCC(=O)Nc3ccc4c(c3)OCCO4)[nH]c2c1", "Potency": "inconclusive: 20.6 µM [activator, partial curve, poor fit]"},
      {"smiles": "O=C1NCCCc2c1oc1ccc(O)cc21", "Potency": "inconclusive: 8.2 µM [inhibitor, partial curve]"},
      {"smiles": "CN(Cc1cn(C)nc1-c1ccc(Oc2ccccc2)cc1)Cc1cnc2ccccn12", "Potency": "inconclusive: 20.6 µM [inhibitor, partial curve]"},
      {"smiles": "COC(=O)[C@@H]1C[C@@]2(O)[C@@H](O)[C@@H](O)[C@@H](O)C[C@H]2N1Cc1ccc(-c2ccccc2)cc1", "activity change, negative = inhibition": "inactive: 11.4%"},
      {"smiles": "CC(C)CNC(=O)COCc1cc(-c2ccc3c(c2)OCO3)on1", "Potency": "inconclusive: 20.6 µM [activator, partial curve]"},
      {"smiles": "CC(=O)c1ccc(OCc2ncc(C(F)(F)F)cc2Cl)cc1", "Potency": "inconclusive: 13 µM [activator, partial curve]"},
      {"smiles": "COc1ccc2cc3cc(C(=O)NCCCN4CCOCC4)oc3nc2c1", "activity change, negative = inhibition": "inactive: 1.55%"},
      {"smiles": "OC(COc1ccc(OCC(O)CN2CCCCCC2)cc1)CN1CCCCCC1", "note": "(configuration not stated)", "activity change, negative = inhibition": "inactive: 13.1%"},
      {"smiles": "CCn1nc(C)c(/C=N/NC(=O)CSc2ccccn2)c1C", "Potency": "inconclusive: 18.3 µM [activator, partial curve]"},
      {"smiles": "CCOC(=O)C1CCCN(C(=O)C2CCN(S(=O)(=O)c3c(C)noc3/C=C/c3ccccc3F)CC2)C1", "note": "(configuration not stated)", "Potency": "inconclusive: 13 µM [inhibitor, partial curve, poor fit]"},
      {"smiles": "Clc1ccc(-c2ccn[nH]2)cc1", "Potency": "inconclusive: 11.6 µM [activator, partial curve, poor fit]"},
      {"smiles": "Cn1c(SCC(=O)NC2CCCC2)nnc1C(F)(F)F", "activity change, negative = inhibition": "inactive: 3.31%"}
    ]}
  ]
}
